Test results published in article PMC8867111.
Results are given in words; binding and its absence hold for the method and conditions named. In cells and extracts the contact can be indirect. These calls come from enrichment with a bait or labelling near it, and not all partners need be listed.

Target: Myc-ZBP1 expressed in THP-1 macrophages
Test: affinity purification with mass spectrometry; THP-1 macrophages transfected with vector control or Myc-ZBP1 for 48 h; lysate on anti-myc affinity columns, eluted with myc peptide; SDS-PAGE, silver stain, bands analysed by mass spectrometry

B1: TRIM34, endogenous in THP-1 macrophages (protein, UniProt Q9BYJ4 1-488)
chain: MASKILLNVQEEVTCPICLELLTEPLSLDCGHSLCRACITVSNKEAVTSMGGKSSCPVCGISYSFEHLQANQHLANIVERLKEVKLSPDNGKKRDLCDHHGEKLLLFCKEDRKVICWLCERSQEHRGHHTVLTEEVFKECQEKLQAVLKRLKKEEEEAEKLEADIREEKTSWKYQVQTERQRIQTEFDQLRSILNNEEQRELQRLEEEEKKTLDKFAEAEDELVQQKQLVRELISDVECRSQWSTMELLQDMSGIMKWSEIWRLKKPKMVSKKLKTVFHAPDLSRMLQMFRELTAVRCYWVDVTLNSVNLNLNLVLSEDQRQVISVPIWPFQCYNYGVLGSQYFSSGKHYWEVDVSKKTAWILGVYCRTYSRHMKYVVRRCANRQNLYTKYRPLFGYWVIGLQNKCKYGVFEESLSSDPEVLTLSMAVPPCRVGVFLDYEAGIVSFFNVTSHGSLIYKFSKCCFSQPVYPYFNPWNCPAPMTLCPPSS
binding: binds
